Results deposited as PubChem BioAssay AID686937 (Drosophila RNAi Screening Center, 2013).
Purpose: 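Genes in the fly needed for secretion of protein constitutively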 (primary screen). System: Drosophila S2 cells expressing secreted horseradish peroxidase. Reagent: long dsRNA against Drosophila genes. Timing: about 5.5 days (5 days dsRNA, then 12 h reporter induction). Treatment: reporter expression induced after 5 days of dsRNA, read 12 h later; inducer not stated. Measured: 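After 5 days of dsRNA and 12 h of reporter induction, medium peroxidase read by chemiluminescence and scored as per-plate z-score; higher values mean more reporter released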. Scale: z-score: higher = more reporter secreted into medium.
The screen tested about 23,000 reagents; below is an unselected part of those with a known target gene and a result. 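Reduced-secretion tags in replicate 1 do not always agree with the z-scores; no criterion for assigning the tags was given.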 The numbers tell different reagents against one gene apart. Not all columns of the deposit are shown. Reagent sequences are not shown. The record does not give: the amount of reagent.

How did the screen score CG9928?
z-score, replicate 1: -0.45

With CG7888, what does the deposit list?
z-score, replicate 1: 0.17

What did the screen give for uncNacbeta?
z-score, replicate 1: 0.28

For CG13494, how do the results read?
z-score, replicate 1: -0.14

With wap, what does the deposit list?
z-score, replicate 1: 0.24

Which result is listed for dyl #1?
z-score, replicate 1: 0.08

What is on record for dyl #2?
z-score, replicate 1: 0.39

What is on record for Acp32CD?
z-score, replicate 1: 0.27

How did the screen score pck?
z-score, replicate 1: 0.17

With CkIIbeta2, what was measured?
z-score, replicate 1: 0.05

What did the screen give for CG6073 #1?
z-score, replicate 1: 0.15

Which result is listed for CG6073 #2?
z-score, replicate 1: 0.31

What did the screen give for senju?
z-score, replicate 1: -0.01

Which result is listed for AsnRS?
z-score, replicate 1: -1.56; phenotype, replicate 1: reduced secretion

How did the screen score RpL27?
z-score, replicate 1: -2.67; phenotype, replicate 1: reduced secretion

For tbrd-1, how do the results read?
z-score, replicate 1: 0.19

For Ir75c, what does the deposit list?
z-score, replicate 1: 0.16

How did the screen score Rsbp15?
z-score, replicate 1: 0.51

For Dic1, what does the deposit list?
z-score, replicate 1: 0.22

How did the screen score TkR86C?
z-score, replicate 1: 0.36

Which result is listed for bard?
z-score, replicate 1: 0.38

What is on record for Liprin-gamma?
z-score, replicate 1: 0.82

Which result is listed for CG11836?
z-score, replicate 1: 0.29

Which result is listed for CG32485?
z-score, replicate 1: -0.19

For CG6985, what was measured?
z-score, replicate 1: 0.04

For GstO3, what does the deposit list?
z-score, replicate 1: 0.07

For CG11927, how do the results read?
z-score, replicate 1: 0.34

What did the screen give for Cpr31A?
z-score, replicate 1: -0.47

How did the screen score CG14797?
z-score, replicate 1: 0.26

What did the screen give for geminin?
z-score, replicate 1: 0.29

For Spn #1, how do the results read?
z-score, replicate 1: 0.36

What is on record for Spn #2?
z-score, replicate 1: 0.36

How did the screen score Spn #3?
z-score, replicate 1: 0.23

How did the screen score Sec10?
z-score, replicate 1: 0.18

How did the screen score Mrtf #1?
z-score, replicate 1: -0.82

What is on record for Mrtf #2?
z-score, replicate 1: -0.53

For Mrtf #3, what was measured?
z-score, replicate 1: -1.23

For jagn, what was measured?
z-score, replicate 1: 0.33

How did the screen score ssp5?
z-score, replicate 1: 0.03

What is on record for CG14402?
z-score, replicate 1: 0.43

What is on record for Sfp53D?
z-score, replicate 1: -0.21

How did the screen score mRpL12?
z-score, replicate 1: 0.18

For mRpL48, what does the deposit list?
z-score, replicate 1: 0.53

For Pdf, what was measured?
z-score, replicate 1: -2.47

How did the screen score CG46301?
z-score, replicate 1: 0.46

With CG13850, what does the deposit list?
z-score, replicate 1: -0.19

For MED26 #1, what does the deposit list?
z-score, replicate 1: -3.53; phenotype, replicate 1: reduced secretion

For MED26 #2, what was measured?
z-score, replicate 1: -1.27

For MED26 #3, how do the results read?
z-score, replicate 1: -2.39; phenotype, replicate 1: reduced secretion

With Dtg, what does the deposit list?
z-score, replicate 1: 0.23

Which result is listed for fd19B?
z-score, replicate 1: -0.16; phenotype, replicate 1: reduced secretion

Sorted by “z-score, replicate 1” (high to low): 6 of the entries above.
dyl #2: z-score, replicate 1 = 0.39
CG6073 #2: z-score, replicate 1 = 0.31
Acp32CD: z-score, replicate 1 = 0.27
pck: z-score, replicate 1 = 0.17
CG6073 #1: z-score, replicate 1 = 0.15
CkIIbeta2: z-score, replicate 1 = 0.05
